Measured values published in the supplement of paper PMC6411743.
± gives the standard deviation of the averaged measurements. Some of the results follow.

By UniProt entry, the sequences of proteins in these tests, tags left out. Where a name states a change or a piece, a line headed by the entry shows the natural chain unless it says otherwise.
UniProt P09488: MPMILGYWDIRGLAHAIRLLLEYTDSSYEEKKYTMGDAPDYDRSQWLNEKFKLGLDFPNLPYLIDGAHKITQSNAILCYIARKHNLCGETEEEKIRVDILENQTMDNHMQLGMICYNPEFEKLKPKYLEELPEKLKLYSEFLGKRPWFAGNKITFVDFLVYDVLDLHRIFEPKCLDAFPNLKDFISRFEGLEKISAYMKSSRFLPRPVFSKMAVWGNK
UniProt P09525: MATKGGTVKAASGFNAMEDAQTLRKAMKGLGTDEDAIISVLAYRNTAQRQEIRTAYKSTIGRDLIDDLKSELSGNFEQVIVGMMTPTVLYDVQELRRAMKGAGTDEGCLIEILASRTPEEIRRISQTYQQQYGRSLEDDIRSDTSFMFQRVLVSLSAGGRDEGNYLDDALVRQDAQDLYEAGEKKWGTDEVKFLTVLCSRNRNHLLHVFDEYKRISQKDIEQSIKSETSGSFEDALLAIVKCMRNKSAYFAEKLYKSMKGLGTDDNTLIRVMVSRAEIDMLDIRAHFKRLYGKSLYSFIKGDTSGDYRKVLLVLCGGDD
UniProt P16989, whole entry: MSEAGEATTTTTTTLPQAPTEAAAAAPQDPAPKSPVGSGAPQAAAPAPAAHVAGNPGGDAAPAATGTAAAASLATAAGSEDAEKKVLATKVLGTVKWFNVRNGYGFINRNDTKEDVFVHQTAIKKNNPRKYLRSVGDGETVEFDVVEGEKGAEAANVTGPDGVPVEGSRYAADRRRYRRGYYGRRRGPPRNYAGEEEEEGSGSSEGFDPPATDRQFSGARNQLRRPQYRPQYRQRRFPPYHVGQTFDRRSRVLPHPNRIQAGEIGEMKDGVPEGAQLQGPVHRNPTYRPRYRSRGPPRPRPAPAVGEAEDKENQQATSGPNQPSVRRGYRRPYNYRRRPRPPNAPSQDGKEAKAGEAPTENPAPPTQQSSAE
UniProt P17050: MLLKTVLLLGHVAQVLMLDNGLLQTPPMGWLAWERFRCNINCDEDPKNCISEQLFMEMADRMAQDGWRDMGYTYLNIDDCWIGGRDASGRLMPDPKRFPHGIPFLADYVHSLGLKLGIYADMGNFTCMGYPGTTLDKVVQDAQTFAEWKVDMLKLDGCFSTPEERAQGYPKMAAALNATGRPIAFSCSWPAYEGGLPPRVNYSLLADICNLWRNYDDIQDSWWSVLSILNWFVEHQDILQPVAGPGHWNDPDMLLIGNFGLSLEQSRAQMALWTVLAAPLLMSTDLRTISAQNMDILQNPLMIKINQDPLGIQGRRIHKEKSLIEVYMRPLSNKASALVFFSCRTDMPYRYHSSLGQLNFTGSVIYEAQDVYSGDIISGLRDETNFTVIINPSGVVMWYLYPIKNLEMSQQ
UniProt P11586, whole entry: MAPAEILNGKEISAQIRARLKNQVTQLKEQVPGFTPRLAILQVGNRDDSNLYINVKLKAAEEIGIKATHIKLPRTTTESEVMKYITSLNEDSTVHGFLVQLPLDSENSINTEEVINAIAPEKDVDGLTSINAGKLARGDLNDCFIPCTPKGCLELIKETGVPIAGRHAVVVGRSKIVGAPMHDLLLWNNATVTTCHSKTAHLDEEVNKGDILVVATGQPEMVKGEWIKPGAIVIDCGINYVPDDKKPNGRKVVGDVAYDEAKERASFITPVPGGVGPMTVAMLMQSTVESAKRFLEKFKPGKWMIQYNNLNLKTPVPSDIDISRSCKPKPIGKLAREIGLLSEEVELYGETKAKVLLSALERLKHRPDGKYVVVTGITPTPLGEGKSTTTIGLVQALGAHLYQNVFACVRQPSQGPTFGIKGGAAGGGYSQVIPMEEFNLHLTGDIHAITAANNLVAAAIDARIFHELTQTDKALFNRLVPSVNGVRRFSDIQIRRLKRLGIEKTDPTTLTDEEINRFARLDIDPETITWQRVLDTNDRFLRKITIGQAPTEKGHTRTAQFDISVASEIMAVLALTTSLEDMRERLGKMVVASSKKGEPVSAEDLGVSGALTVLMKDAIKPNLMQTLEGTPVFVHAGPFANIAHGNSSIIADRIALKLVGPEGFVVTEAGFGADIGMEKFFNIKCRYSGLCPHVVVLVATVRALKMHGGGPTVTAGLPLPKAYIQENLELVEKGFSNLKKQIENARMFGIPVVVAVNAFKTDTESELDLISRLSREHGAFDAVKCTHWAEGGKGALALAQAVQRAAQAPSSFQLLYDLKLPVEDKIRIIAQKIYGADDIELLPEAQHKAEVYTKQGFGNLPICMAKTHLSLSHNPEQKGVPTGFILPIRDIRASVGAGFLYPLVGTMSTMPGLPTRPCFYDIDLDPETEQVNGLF
UniProt P17096: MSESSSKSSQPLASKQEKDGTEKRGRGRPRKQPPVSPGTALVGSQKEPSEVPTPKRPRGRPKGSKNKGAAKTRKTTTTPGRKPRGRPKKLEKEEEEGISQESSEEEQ
UniProt P08621, whole entry: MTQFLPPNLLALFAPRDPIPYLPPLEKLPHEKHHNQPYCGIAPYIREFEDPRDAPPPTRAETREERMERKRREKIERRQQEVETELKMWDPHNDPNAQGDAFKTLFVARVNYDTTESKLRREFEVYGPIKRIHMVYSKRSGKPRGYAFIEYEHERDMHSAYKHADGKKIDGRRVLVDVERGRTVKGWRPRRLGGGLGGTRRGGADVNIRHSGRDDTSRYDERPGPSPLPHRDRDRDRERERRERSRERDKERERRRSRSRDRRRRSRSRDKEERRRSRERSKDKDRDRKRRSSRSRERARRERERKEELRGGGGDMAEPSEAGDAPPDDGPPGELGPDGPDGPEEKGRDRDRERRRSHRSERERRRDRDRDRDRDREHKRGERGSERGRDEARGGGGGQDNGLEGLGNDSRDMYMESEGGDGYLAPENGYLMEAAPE
UniProt P09110: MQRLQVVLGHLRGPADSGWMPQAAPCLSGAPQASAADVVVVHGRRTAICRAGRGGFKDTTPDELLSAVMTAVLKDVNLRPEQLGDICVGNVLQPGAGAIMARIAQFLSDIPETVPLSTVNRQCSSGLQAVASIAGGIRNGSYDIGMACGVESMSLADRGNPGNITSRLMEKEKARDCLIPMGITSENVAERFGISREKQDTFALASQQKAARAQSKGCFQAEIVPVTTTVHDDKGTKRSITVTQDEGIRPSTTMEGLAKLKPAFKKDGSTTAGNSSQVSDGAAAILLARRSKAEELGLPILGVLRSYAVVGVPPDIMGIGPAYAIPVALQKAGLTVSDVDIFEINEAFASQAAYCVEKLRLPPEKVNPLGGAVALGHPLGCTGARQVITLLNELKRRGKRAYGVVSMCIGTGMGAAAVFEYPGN
UniProt P13073, whole entry: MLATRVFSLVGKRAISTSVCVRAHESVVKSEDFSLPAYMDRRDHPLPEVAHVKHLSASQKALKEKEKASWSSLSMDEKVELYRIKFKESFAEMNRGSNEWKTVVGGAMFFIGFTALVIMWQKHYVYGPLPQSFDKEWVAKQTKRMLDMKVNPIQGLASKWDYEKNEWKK
UniProt P07738: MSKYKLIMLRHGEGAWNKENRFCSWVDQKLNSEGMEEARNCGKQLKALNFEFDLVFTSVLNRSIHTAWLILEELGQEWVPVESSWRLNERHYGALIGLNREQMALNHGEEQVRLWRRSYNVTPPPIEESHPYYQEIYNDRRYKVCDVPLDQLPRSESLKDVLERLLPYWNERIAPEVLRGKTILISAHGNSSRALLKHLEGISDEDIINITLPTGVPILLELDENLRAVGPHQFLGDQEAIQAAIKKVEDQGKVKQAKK
UniProt P13489: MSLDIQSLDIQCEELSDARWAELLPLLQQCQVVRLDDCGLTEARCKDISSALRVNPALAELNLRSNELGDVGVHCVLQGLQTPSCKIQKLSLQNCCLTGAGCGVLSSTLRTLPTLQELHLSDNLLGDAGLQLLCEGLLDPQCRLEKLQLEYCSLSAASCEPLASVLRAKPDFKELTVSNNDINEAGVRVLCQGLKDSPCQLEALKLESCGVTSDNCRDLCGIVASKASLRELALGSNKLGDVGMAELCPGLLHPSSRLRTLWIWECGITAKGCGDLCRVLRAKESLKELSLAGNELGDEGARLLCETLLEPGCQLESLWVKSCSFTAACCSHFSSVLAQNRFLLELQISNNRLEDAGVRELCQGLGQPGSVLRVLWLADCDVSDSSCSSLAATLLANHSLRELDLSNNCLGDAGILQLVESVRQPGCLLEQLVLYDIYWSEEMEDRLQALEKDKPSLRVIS
UniProt P10636, whole entry: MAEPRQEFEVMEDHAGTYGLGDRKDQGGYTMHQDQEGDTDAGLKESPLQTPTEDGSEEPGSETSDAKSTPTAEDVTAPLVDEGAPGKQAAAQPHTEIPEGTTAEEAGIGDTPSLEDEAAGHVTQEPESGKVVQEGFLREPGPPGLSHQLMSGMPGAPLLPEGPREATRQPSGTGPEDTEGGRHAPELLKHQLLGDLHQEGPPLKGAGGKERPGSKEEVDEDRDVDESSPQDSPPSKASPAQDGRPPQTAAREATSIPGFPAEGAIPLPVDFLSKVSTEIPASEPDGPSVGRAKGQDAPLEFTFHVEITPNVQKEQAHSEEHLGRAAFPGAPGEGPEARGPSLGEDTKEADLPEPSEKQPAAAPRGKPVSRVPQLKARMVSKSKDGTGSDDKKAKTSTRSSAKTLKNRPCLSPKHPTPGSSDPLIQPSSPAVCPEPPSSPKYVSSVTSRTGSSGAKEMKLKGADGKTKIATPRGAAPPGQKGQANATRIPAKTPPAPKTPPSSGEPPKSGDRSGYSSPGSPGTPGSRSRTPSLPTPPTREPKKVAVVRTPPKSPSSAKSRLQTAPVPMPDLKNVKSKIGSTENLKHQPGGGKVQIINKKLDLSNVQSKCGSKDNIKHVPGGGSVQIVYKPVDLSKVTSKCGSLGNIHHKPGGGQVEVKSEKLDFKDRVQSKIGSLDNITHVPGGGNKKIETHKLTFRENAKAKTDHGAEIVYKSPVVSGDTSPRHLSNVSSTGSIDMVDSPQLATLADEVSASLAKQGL
UniProt P14151: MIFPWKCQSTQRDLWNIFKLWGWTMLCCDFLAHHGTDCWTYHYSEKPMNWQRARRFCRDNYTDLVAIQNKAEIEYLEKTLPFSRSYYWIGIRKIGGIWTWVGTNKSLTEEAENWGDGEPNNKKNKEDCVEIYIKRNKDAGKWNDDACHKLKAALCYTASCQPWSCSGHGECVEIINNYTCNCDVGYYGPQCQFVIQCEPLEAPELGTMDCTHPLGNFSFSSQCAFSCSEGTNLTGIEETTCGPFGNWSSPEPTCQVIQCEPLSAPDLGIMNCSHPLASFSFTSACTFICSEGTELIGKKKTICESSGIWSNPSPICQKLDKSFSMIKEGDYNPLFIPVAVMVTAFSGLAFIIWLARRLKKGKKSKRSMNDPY
UniProt P14921: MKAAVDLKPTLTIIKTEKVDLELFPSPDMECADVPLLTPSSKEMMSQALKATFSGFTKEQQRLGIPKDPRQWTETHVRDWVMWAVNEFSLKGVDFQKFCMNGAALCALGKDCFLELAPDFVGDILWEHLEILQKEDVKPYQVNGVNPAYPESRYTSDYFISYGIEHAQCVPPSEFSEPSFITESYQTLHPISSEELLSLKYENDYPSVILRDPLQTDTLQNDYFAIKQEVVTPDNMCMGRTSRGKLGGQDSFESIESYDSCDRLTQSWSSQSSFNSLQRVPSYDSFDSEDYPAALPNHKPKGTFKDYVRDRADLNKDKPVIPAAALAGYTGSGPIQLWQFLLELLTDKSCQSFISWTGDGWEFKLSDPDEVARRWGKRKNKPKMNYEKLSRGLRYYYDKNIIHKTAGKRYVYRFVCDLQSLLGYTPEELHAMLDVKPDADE
UniProt P16220: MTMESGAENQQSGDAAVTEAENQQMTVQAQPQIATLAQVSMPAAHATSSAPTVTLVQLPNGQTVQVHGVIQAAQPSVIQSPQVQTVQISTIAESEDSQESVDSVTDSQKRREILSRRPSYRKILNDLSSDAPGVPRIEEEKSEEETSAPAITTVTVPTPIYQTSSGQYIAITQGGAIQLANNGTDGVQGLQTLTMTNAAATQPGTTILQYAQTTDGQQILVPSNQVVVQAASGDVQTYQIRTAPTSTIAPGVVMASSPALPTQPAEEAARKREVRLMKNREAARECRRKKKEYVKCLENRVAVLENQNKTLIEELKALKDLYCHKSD
UniProt P17098: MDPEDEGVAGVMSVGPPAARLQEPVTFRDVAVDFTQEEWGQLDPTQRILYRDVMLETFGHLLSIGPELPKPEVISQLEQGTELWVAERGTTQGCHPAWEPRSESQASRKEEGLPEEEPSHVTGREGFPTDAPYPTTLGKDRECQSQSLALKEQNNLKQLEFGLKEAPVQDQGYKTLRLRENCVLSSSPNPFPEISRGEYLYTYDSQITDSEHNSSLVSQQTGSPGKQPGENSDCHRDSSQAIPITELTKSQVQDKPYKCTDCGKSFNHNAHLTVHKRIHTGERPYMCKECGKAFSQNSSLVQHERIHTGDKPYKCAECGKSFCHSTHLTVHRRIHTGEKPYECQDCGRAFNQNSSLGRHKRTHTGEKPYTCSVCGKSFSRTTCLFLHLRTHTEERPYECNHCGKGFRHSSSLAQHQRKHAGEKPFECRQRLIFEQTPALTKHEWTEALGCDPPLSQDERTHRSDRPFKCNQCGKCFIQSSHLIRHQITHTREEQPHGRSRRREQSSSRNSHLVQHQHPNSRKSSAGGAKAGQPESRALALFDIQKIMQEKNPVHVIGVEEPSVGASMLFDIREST

Compound: Nc1nc2c(ncn2[C@@H]2O[C@H](COP(=O)(O)OP(=O)(O)OP(=O)(O)O)[C@@H](O)[C@H]2O)c(=O)[nH]1 [guanosine triphosphate]
Test: NP40-soluble protein abundance relative to vehicle (solubility fold change) (ratio); higher = more soluble protein in presence of GTP
Procedure, shortened: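 Each value is a fold change relative to the detergent-processed vehicle, calculated per replicate from vsn-normalised intensities. Jurkat crude lysate received eight concentrations (0.1 to 10 mM) for 10 min at room temperature and 3 min at 37 °C, then was solubilised in 0.8% NP40 with benzonase (60 min, 4 °C). The ultracentrifuged supernatant was TMT-labelled and run by LC-MS/MS in three independent experiments.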

Target	NP40-soluble protein abundance (concentration: 0.1mM)	NP40-soluble protein abundance (concentration: 0.5mM)	NP40-soluble protein abundance (concentration: 1mM)	NP40-soluble protein abundance (concentration: 2mM)	NP40-soluble protein abundance (concentration: 4mM)	NP40-soluble protein abundance (concentration: 6mM)	NP40-soluble protein abundance (concentration: 8mM)	NP40-soluble protein abundance (concentration: 10mM)
UniProt P09488 and related entries	0.981 ± 0.044	1 ± 0.047	0.836 ± 0.036	0.827 ± 0.024	0.783 ± 0.053	0.808 ± 0.04	0.746 ± 0.039	0.745 ± 0.081
UniProt P09525 and related entries	0.977 ± 0.076	0.957 ± 0.085	0.898 ± 0.1	0.899 ± 0.075	0.873 ± 0.11	0.856 ± 0.059	0.828 ± 0.12	0.826 ± 0.093
UniProt P16989 and related entries	0.947 ± 0.022	0.912 ± 0.069	0.997 ± 0.047	0.903 ± 0.066	0.813 ± 0.078	0.783 ± 0.093	0.747 ± 0.062	0.697 ± 0.11
NAGA (UniProt P17050)	1.01 ± 0.033	0.9779 ± 0.0094	1 ± 0.034	0.977 ± 0.027	0.999 ± 0.02	0.939 ± 0.045	1.04 ± 0.081	0.965 ± 0.062
UniProt P11586 and related entries	0.9571 ± 0.0065	0.977 ± 0.025	0.9434 ± 0.0062	0.9157 ± 0.0038	0.9095 ± 0.0076	0.9153 ± 0.0059	0.895 ± 0.012	0.861 ± 0.023
UniProt P11310 and related entries	0.965 ± 0.035	0.998 ± 0.032	0.924 ± 0.035	0.915 ± 0.015	0.903 ± 0.032	0.928 ± 0.015	0.906 ± 0.06	0.881 ± 0.034
UniProt P17096 and related entries	1.06 ± 0.062	1.06 ± 0.12	1.21 ± 0.081	1.33 ± 0.12	1.37 ± 0.14	1.69 ± 0.3	1.55 ± 0.21	2.02 ± 0.076
SNRNP70 (UniProt P08621)	1.02 ± 0.034	1.182 ± 0.0083	1.23 ± 0.022	1.29 ± 0.049	1.39 ± 0.11	1.54 ± 0.13	1.66 ± 0.19	1.69 ± 0.17
UniProt P09110 and related entries	1 ± 0.062	0.987 ± 0.054	0.949 ± 0.061	0.918 ± 0.039	0.946 ± 0.042	0.903 ± 0.044	0.91 ± 0.076	0.888 ± 0.083
RAB4A (UniProt P20338)	0.901 ± 0.063	1 ± 0.098	0.866 ± 0.093	0.842 ± 0.1	0.772 ± 0.072	0.834 ± 0.092	0.757 ± 0.11	0.802 ± 0.15
TCEA1 (UniProt P23193)	0.951 ± 0.11	0.921 ± 0.091	0.953 ± 0.1	0.881 ± 0.11	0.89 ± 0.12	0.898 ± 0.11	0.935 ± 0.12	0.888 ± 0.087
COX4I1 (UniProt P13073)	0.922 ± 0.0099	0.893 ± 0.043	0.961 ± 0.02	0.957 ± 0.041	0.946 ± 0.03	0.947 ± 0.038	0.898 ± 0.058	0.922 ± 0.029
P0DN79 and related entries (UniProt P35520+P0DN79)	1.07 ± 0.06	1.03 ± 0.052	1.01 ± 0.026	1.01 ± 0.064	1.02 ± 0.017	0.984 ± 0.1	1.01 ± 0.036	1.03 ± 0.075
BPGM (UniProt P07738)	1.02 ± 0.06	0.998 ± 0.017	0.991 ± 0.038	1 ± 0.041	0.959 ± 0.07	0.92 ± 0.082	0.946 ± 0.019	0.936 ± 0.035
RNH1 (UniProt P13489)	1.01 ± 0.048	0.994 ± 0.09	0.92 ± 0.046	0.904 ± 0.078	0.903 ± 0.077	0.896 ± 0.084	0.876 ± 0.054	0.846 ± 0.071
P0DN76 and related entries (UniProt Q01081+P0DN76)	1.23 ± 0.074	1.61 ± 0.28	1.64 ± 0.32	1.67 ± 0.32	1.71 ± 0.36	1.78 ± 0.4	1.79 ± 0.45	1.76 ± 0.38
UniProt P10636-2|P10636-6	0.877 ± 0.058	0.831 ± 0.063	1.05 ± 0.064	1.05 ± 0.14	0.974 ± 0.054	0.94 ± 0.047	0.935 ± 0.11	1.02 ± 0.019
ANXA5 (UniProt P08758)	0.882 ± 0.07	0.908 ± 0.054	0.878 ± 0.077	0.854 ± 0.076	0.819 ± 0.073	0.843 ± 0.089	0.794 ± 0.081	0.809 ± 0.085
ESD (UniProt P10768)	0.959 ± 0.015	0.958 ± 0.032	0.924 ± 0.032	0.876 ± 0.025	0.882 ± 0.034	0.897 ± 0.04	0.875 ± 0.044	0.839 ± 0.059
UniProt P14151 and related entries	0.844 ± 0.078	0.865 ± 0.1	0.923 ± 0.049	0.872 ± 0.12	0.848 ± 0.1	0.887 ± 0.1	0.87 ± 0.1	0.903 ± 0.086
ERCC3 (UniProt P19447)	0.994 ± 0.035	1.04 ± 0.016	1.05 ± 0.024	1.03 ± 0.025	1.03 ± 0.045	1.12 ± 0.026	1.09 ± 0.045	1.03 ± 0.021
DTYMK (UniProt P23919)	0.9789 ± 0.008	0.961 ± 0.022	0.9 ± 0.036	0.889 ± 0.01	0.865 ± 0.037	0.86 ± 0.024	0.834 ± 0.057	0.817 ± 0.048
UniProt P14921 and related entries	0.957 ± 0.031	0.965 ± 0.021	0.926 ± 0.074	0.885 ± 0.082	0.905 ± 0.088	0.882 ± 0.11	0.895 ± 0.052	0.884 ± 0.084
GCSH (UniProt P23434)	0.91 ± 0.021	0.889 ± 0.088	0.958 ± 0.043	0.908 ± 0.097	0.866 ± 0.083	0.91 ± 0.12	0.908 ± 0.098	0.882 ± 0.048
CREB1 (UniProt P16220)	0.911 ± 0.17	0.9 ± 0.049	0.902 ± 0.13	0.902 ± 0.11	0.922 ± 0.17	0.87 ± 0.078	0.877 ± 0.13	0.949 ± 0.15
UniProt P14324-2	1.01 ± 0.027	0.973 ± 0.03	0.925 ± 0.026	0.875 ± 0.038	0.862 ± 0.022	0.872 ± 0.022	0.855 ± 0.068	0.798 ± 0.053
ICAM2 (UniProt P13598)	0.85 ± 0.077	0.861 ± 0.1	0.937 ± 0.1	0.854 ± 0.11	0.849 ± 0.12	0.879 ± 0.13	0.839 ± 0.11	0.9 ± 0.098
HSP90B1 (UniProt P14625)	0.96 ± 0.015	0.99 ± 0.02	0.946 ± 0.029	0.916 ± 0.022	0.901 ± 0.034	0.922 ± 0.025	0.908 ± 0.021	0.888 ± 0.03
ZNF8 (UniProt P17098)	0.987 ± 0.11	0.998 ± 0.11	0.967 ± 0.071	1 ± 0.12	0.952 ± 0.071	0.927 ± 0.091	0.995 ± 0.13	1.01 ± 0.1
FER (UniProt P16591)	1.01 ± 0.042	1.04 ± 0.064	1.04 ± 0.085	1.05 ± 0.11	1.04 ± 0.085	1.04 ± 0.13	1.01 ± 0.1	0.955 ± 0.057

Single records, as listed above.
UniProt P17096 and related entries as listed: NP40-soluble protein abundance (concentration: 0.1mM): 1.06 ± 0.062; NP40-soluble protein abundance (concentration: 0.5mM): 1.06 ± 0.12; NP40-soluble protein abundance (concentration: 1mM): 1.21 ± 0.081; NP40-soluble protein abundance (concentration: 2mM): 1.33 ± 0.12; NP40-soluble protein abundance (concentration: 4mM): 1.37 ± 0.14; NP40-soluble protein abundance (concentration: 6mM): 1.69 ± 0.3; NP40-soluble protein abundance (concentration: 8mM): 1.55 ± 0.21; NP40-soluble protein abundance (concentration: 10mM): 2.02 ± 0.076
P0DN79 and related entries (UniProt P35520+P0DN79) as listed: NP40-soluble protein abundance (concentration: 0.1mM): 1.07 ± 0.06; NP40-soluble protein abundance (concentration: 0.5mM): 1.03 ± 0.052; NP40-soluble protein abundance (concentration: 1mM): 1.01 ± 0.026; NP40-soluble protein abundance (concentration: 2mM): 1.01 ± 0.064; NP40-soluble protein abundance (concentration: 4mM): 1.02 ± 0.017; NP40-soluble protein abundance (concentration: 6mM): 0.984 ± 0.1; NP40-soluble protein abundance (concentration: 8mM): 1.01 ± 0.036; NP40-soluble protein abundance (concentration: 10mM): 1.03 ± 0.075
